Results taken from article PMC8041770.
These are yes or no findings as the source states them, for the method shown. Some entries that bind do so weakly or less than the wild type. Tags and fused reporters may be left off the sequences shown.

B1: recombinant human cardiotrophin-1-Fc (Fc fusion, UniProt Q16619 1-201)
chain: MSRREGSLEDPQTDSSVSLLPHLEAKIRQTHSLAHLLTKYAEQLLQEYVQLQGDPFGLPSFSPPRLPVAGLSAPAPSHAGLPVHERLRLDAAALAALPPLLDAVCRRQAELNPRAPRLLRRLEDAARQARALGAAVEALLAALGAANRGPRAEPPAATASAASATGVFPAKVLGLRVCGLYREWLSRTEGDLGQLLPGGSA
B2: recombinant human oncostatin M-His (ligand, UniProt P13725 26-221)
chain: AAIGSCSKEYRVLLGQLQKQTDLMQDTSRLLDPYIRIQGLDVPKLREHCRERPGAFPSEETLRGLGRRGFLQTLNATLGCVLHRLADLEQRLPKAQDLERSGLNIEDLEKLQMARPNILGLRNNIYCMAQLLDNSDTAEPTKAGRGASQPPTPTPASDAFQRKLEGCRFLHGYHRFMHSVGRVFSKWGESPNRSRR
B3: recombinant human oncostatin M, His-tagged (hOSM-His) (ligand, UniProt P13725 26-221)
chain: B2 chain
B4: recombinant human cardiotrophin-1 Fc fusion (hCTF-1-Fc) (Fc fusion, UniProt Q16619 1-201)
chain: B1 chain

How the values were obtained:
[1] = target: T1, yeast-displayed human LIFR CBM I-Ig-like-CBM II (Gln45 to Ser534) (human) (UniProt P42702); assay: flow cytometry on cells; receptor displayed on yeast, soluble cytokine titrated in PBS with 1 mg/ml BSA; bound cytokine detected by fluorescent antibodies; apparent Kd by non-linear regression; only the binder purified
T1 sequence: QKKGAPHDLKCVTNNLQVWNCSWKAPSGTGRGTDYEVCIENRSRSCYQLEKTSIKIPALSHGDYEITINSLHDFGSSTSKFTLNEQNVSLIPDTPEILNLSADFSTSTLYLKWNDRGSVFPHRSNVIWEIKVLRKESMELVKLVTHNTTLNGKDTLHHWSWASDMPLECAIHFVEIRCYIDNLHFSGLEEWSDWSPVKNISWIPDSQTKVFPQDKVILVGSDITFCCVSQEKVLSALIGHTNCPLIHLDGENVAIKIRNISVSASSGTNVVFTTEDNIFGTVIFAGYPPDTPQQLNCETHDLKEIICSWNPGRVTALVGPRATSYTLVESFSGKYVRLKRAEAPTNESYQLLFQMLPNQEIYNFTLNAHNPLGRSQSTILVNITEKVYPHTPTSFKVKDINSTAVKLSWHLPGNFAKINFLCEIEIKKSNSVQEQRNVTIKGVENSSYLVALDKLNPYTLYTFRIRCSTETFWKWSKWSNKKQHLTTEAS

[2] = target: T2, yeast-displayed wild-type human LIFR CBM I–Ig-like–CBM II domains (Gln45 to Ser534) (human) (UniProt P42702); assay: flow cytometry on cells; LIFR constructs displayed on yeast (EBY100), soluble tagged cytokine (LIF-His and others) in PBS with 1 mg/ml BSA, detected by antibody to the tag; gated on c-myc-positive yeast; apparent affinity by non-linear regression; only the binder purified
T2 sequence: T1 sequence

binding [1] | binding [2] | Binder
binds weakly | – | B1
binds weakly | – | B2
– | binds weakly | B3
– | binds weakly | B4
